For experiment [1], the target named is T1, Fragile-site associated tumour suppressor (FATS), Flag-tagged (UniProt Q96M02).
T1 sequence: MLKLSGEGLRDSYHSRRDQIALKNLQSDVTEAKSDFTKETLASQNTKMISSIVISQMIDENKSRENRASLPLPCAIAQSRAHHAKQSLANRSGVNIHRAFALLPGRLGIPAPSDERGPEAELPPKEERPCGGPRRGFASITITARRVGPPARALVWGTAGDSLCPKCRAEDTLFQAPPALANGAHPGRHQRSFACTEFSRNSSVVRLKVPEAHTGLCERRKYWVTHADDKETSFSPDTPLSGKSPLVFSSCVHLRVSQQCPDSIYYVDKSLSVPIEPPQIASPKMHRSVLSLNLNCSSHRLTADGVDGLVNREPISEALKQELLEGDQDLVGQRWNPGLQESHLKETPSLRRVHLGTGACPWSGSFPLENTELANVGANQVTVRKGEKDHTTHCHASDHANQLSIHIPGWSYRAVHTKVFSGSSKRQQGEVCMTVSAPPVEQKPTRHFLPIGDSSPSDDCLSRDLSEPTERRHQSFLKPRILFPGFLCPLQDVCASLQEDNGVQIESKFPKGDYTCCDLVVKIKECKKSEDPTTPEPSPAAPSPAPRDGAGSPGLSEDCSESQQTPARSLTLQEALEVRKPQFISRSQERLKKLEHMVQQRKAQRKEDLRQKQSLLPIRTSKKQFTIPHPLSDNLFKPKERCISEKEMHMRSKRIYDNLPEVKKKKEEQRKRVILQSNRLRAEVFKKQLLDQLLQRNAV
Briefly: co-IP; A549 cells transfected with control or Flag-FATS vector for 48 h; RIPA lysate (1000 µg total protein in 500 µl) incubated overnight at 4 °C with beads carrying 1 µg of Flag, ODC or ERβ antibody or normal control IgG; three washes with lysis buffer; western blot.

Protein sequences, listed by entry. Tags and fused reporters are not part of them.
UniProt Q92731: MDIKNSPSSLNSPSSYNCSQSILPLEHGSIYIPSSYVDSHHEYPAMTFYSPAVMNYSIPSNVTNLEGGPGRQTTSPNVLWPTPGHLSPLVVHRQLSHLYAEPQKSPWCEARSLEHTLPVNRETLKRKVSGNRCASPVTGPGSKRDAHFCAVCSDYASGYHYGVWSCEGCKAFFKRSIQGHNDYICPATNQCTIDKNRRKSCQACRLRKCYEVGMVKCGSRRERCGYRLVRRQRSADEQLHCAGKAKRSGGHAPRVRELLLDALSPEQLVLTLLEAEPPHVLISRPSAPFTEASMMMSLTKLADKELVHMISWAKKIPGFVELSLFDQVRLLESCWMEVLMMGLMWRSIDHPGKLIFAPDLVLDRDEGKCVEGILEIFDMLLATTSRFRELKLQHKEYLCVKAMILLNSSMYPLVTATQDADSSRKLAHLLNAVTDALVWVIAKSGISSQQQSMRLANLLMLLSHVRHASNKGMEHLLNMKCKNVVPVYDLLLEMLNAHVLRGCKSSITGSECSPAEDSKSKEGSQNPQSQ

The target of experiment [2] is Oestrogen receptor beta (ERβ) (human (endogenous in A549)) (UniProt Q92731). The description is as above.

Results are given in words; binding and its absence hold for the method and conditions named. In cells and extracts the contact can be indirect. Some results given as binding are weak or reduced against the parent protein; the word gives no strength. For some assays here: Where a sequence is shown, tags or fusion partners need not be part of it.

In the case of “Oestrogen receptor beta (ERβ) (from UniProt Q92731 1-530)”, the binding result in experiment [1] is recorded as “binds”.

B1: Ornithine decarboxylase (ODC) (enzyme, UniProt P11926 1-461)
chain: MNNFGNEEFDCHFLDEGFTAKDILDQKINEVSSSDDKDAFYVADLGDILKKHLRWLKALPRVTPFYAVKCNDSKAIVKTLAATGTGFDCASKTEIQLVQSLGVPPERIIYANPCKQVSQIKYAANNGVQMMTFDSEVELMKVARAHPKAKLVLRIATDDSKAVCRLSVKFGATLRTSRLLLERAKELNIDVVGVSFHVGSGCTDPETFVQAISDARCVFDMGAEVGFSMYLLDIGGGFPGSEDVKLKFEEITGVINPALDKYFPSDSGVRIIAEPGRYYVASAFTLAVNIIAKKIVLKEQTGSDDEDESSEQTFMYYVNDGVYGSFNCILYDHAHVKPLLQKRPKPDEKYYSSSIWGPTCDGLDRIVERCDLPEMHVGDWMLFENMGAYTVAAASTFNGFQRPTIYYVMSGPAWQLMQQFQNPDFPPEVEEQDASTLPVSCAWESGMKRHRAACASASINV
For B1, in experiment [2], the binding entry is given as “binds”.
